Measurements: paper PMC4330393
Results are given in words; binding and its absence hold for the method and conditions named. Some binding calls cover weakened binding; strength is not graded here. Sequences can lack the tags named with a protein.

Tests used:
[1] = biological target: T1, GST-Tap (372–551) (human) (UniProt Q9UBU9); assay: co-purification (GST affinity chromatography of co-expressed proteins); GST-Tap fragment and untagged p15 co-expressed in E. coli BL21(DE3) codon plus; glutathione-Sepharose chromatography; SDS-PAGE and CBB staining
T1 sequence: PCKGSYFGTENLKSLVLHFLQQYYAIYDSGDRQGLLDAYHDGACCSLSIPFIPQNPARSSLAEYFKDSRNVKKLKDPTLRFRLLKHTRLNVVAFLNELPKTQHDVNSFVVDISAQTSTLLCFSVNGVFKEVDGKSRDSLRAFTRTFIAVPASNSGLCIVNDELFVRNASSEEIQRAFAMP

[2] = biological target: T2, GST-Tap (188–619) (human) (UniProt Q9UBU9); assay: as above
T2 sequence: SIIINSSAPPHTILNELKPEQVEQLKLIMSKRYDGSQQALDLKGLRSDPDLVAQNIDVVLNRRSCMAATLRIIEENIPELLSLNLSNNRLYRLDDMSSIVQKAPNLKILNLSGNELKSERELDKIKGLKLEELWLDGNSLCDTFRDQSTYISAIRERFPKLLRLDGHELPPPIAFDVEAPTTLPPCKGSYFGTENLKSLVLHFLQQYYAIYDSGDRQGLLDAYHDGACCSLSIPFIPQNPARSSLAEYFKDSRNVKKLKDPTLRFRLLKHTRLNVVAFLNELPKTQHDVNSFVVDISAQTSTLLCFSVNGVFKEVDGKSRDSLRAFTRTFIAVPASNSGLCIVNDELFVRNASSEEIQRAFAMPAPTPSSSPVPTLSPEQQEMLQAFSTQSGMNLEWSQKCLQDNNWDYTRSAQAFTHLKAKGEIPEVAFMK

[3] = biological target: T3, GST-Tap (372–619) (human) (UniProt Q9UBU9); assay: as above
T3 sequence: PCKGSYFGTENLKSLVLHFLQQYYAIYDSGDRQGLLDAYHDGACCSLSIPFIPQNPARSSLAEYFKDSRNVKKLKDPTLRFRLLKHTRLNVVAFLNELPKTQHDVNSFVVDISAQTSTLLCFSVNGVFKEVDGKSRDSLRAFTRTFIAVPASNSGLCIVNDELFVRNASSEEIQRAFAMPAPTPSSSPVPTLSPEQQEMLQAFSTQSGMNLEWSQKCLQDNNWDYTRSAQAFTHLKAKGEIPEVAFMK

GST-Tap (96–551) (human) = biological target: T4, GST-Tap (96–551) (human) (UniProt Q9UBU9); assay: co-purification (GST affinity chromatography of co-expressed proteins); GST-Tap (96-551) and untagged p15 co-expressed in E. coli BL21(DE3) codon plus; glutathione-Sepharose, then heparin-agarose chromatography; SDS-PAGE and CBB staining
T4 sequence: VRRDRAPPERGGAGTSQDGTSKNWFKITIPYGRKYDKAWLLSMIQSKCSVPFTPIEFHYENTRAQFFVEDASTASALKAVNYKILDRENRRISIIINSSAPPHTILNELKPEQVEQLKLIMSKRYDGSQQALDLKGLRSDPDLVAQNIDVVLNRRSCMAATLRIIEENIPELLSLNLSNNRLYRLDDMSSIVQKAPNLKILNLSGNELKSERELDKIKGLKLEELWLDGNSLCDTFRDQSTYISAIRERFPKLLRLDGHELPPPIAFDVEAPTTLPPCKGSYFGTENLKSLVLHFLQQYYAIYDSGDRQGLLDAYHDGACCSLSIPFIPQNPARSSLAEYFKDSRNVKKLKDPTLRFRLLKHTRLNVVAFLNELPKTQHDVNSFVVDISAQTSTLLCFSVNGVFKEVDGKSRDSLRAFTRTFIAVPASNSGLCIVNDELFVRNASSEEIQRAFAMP

Measured: binding

B1: p15 (protein, UniProt Q9UKK6 1-140)
chain: MASVDFKTYVDQACRAAEEFVNVYYTTMDKRRRLLSRLYMGTATLVWNGNAVSGQESLSEFFEMLPSSEFQISVVDCQPVHDEATPSQTTVLVVICGSVKFEGNKQRDFNQNFILTAQASPSNTVWKIASDCFRFQDWAS
binds: all assays above
